# No constants are given. Whether binding was seen depends on the method and setting. In cells and extracts the contact can be indirect. Some binding calls cover weakened binding; strength is not graded here.
# Amino acid sequences for entries named in this document (tags omitted).
# UniProt O43524: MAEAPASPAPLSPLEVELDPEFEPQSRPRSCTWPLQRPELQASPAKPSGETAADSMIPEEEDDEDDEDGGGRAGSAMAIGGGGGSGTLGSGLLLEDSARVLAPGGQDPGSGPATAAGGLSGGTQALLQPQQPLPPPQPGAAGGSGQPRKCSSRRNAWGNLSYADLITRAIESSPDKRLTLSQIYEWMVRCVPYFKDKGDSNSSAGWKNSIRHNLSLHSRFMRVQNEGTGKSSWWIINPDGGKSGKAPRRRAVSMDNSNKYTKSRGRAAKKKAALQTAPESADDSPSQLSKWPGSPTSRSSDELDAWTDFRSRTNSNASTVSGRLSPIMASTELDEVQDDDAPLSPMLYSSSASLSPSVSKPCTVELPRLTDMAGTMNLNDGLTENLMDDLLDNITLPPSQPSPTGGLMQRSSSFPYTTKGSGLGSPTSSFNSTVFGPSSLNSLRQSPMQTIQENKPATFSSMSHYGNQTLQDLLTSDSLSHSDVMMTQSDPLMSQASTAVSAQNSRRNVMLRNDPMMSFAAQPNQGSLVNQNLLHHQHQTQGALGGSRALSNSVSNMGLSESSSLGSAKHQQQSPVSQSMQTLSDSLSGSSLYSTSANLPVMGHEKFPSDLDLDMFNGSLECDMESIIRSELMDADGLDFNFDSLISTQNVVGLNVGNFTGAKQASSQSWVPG
# Biological target: Myc-tagged wild-type FTO (UniProt Q9C0B1)
# Test: co-IP; reciprocal co-immunoprecipitation; HA-tagged FOXO3a over-expressed together with Myc-tagged FTO-WT or FTO-Mut in HEK293 cells
substance,measurement,value
HA-tagged FOXO3a (from UniProt O43524 1-673),binding,binds
